PubChem BioAssay AID743238 (Broad Institute, 2013)
About 200 (0.056%) of roughly 360,000 compounds were called active. Inconclusive means that the source gave no clear call. Such entries were picked first, then a sample of the others.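 The calls were made as follows: active = mean normalized replicate activation at least 10% and every replicate at or above 10%; inconclusive = only one of the two criteria met; inactive = mean below 10% and not all replicates reach 10%.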

Test: activators of inactive X chromosome reactivation, primary screen, imaging, XiGFP fibroblasts, GFP high-content imaging, set 2 (AID 743238);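 also: 0% = median of on-plate neutral control wells and 100% = ellipticine 6 µM median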
Conditions: XiGFP mouse fibroblasts, % GFP-positive cells imaging, 3 d; at 7.58 µM; active compounds read high; cells co-treated with 5-aza-dC sensitizer; scaled so ellipticine positive control = 100%
Outline: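 assay system = SV40-immortalized XiGFP fibroblast cells, line 68-5-11 | buffer or medium = DMEM plus 5-aza-dC sensitizer | doses = single-point pinned compound dosing | times = 3-day compound exposure, then 15 min fixation at room temperature | benchmarks = positive control ellipticine, 6 µM final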
In the case of `CC(C)(C)N(Cc1ccccc1)C(=O)COC(=O)c1ccc(N2CCCC2=O)cc1`, the activation is reported as inconclusive: 11.6%. In the case of `COc1cccc(CNC(=O)C(Cc2ccccc2)n2cccc2)c1` (configuration not stated), the activation is reported as inconclusive: 24.7%. With `CSc1ccccc1OCc1cc(C(=O)N[C@H]2CCCCNC2=O)no1` the activation was inactive: 0.241%. With `CN1CCc2c(sc(NC(=O)c3ccc(S(=O)(=O)N4CCc5ccccc54)cc3)c2C(N)=O)C1` the activation was inconclusive: 14.8%. With `CN1C(=O)c2cc(NC(=O)C3CC3)ccc2OC[C@H]2O[C@H](CC(=O)NCC3CCCCC3)CC[C@@H]21` the activation was inactive: 0.0105%. With `CCN1CCN(S(=O)(=O)c2ccc(C(=O)Nc3sc4c(c3C(N)=O)CCN(CC)C4)cc2)CC1` the activation was active: 53.8%. For `COc1ccc(/C=N/NC(=O)Cc2ccc(Cl)cc2)cc1OC`, the activation was inactive: 0.161%. In the case of `O=C(NCCN1C(=O)S/C(=C\c2ccc(OC(F)F)cc2)C1=O)c1cnccn1`, the activation is reported as inactive: 0.287%. In the case of `O=C(C[C@@H]1C[C@@H]2c3cc(NC(=O)C4CCC4)ccc3O[C@@H]2[C@@H](CO)O1)NCc1ccc(Cl)cc1`, the activation is reported as inconclusive: 16.2%. In the case of `CN(Cc1nc(CCc2ccccc2)no1)Cc1cccs1`, the activation is reported as active: 40.4%. For `C[C@H](O)C#Cc1ccc([C@H]2[C@@H](CO)N3CCCCN(C(=O)c4ccc(F)cc4)C[C@@H]23)cc1`, the activation was inactive: -0.0915%. For `CCCC[n+]1ccn(C2=C([O-])c3ccccc3C(=O)/C2=N\S(=O)(=O)c2ccc(Br)cc2)c1`, the activation was inactive: -0.007%. For `O=C(c1ccccc1Cl)N1CCSCCS1(=O)=O`, the activation was inconclusive: 10.2%. With `O=C(/C=C/Sc1ccc(C(F)(F)F)cn1)c1ccccc1` the activation was inconclusive: 11.7%. With `CC(C(=O)N1CCCC1)N(c1ccccc1)S(C)(=O)=O` (configuration not stated) the activation was inactive: 0.006%. In the case of `Cc1ccc2c(COC(=O)C34CC5CC(CC(C5)C3)C4)cc(=O)oc2c1`, the activation is reported as inconclusive: 32.2%. For `Cc1nnc(N2C(=O)c3cccc4c([N+](=O)[O-])ccc(c34)C2=O)s1`, the activation was active: 27%. For `COc1ccc(C)c(-n2c(=O)n(Cc3ccccc3)c(=O)c3[nH]cnc32)c1`, the activation was inconclusive: 14.7%. In the case of `C/C(CC(=O)Nc1ccc(C)c(Cl)c1)=N\NC(=O)Cc1ccccc1`, the activation is reported as inconclusive: 12.6%. In the case of `Nc1ccc2cc3[nH]c4cc(N)ccc4c3nc2c1`, the activation is reported as active: 62.8%. For `COCC(=O)Nc1ccc2c(c1)C(=O)N(C)[C@H]1CC[C@H](CC(=O)Nc3cn(C)nc3C)O[C@H]1CO2`, the activation was inactive: 0.052%. With `C=CCNC(=O)N[C@@H](Cc1ccccc1)C(=O)OC` the activation was inconclusive: 14.7%. In the case of `COc1ccc(Cl)cc1C(=O)NNC(=O)c1cccc([N+](=O)[O-])c1`, the activation is reported as inactive: 0.0935%. For `S=C(NCc1ccco1)Nc1cccc(Cl)c1Cl`, the activation was inconclusive: 25.2%. With `CCNC(=O)C[C@@H]1CC[C@H]2[C@@H](COC[C@@H](O)CN2C(=O)C2CCCC2)O1` the activation was inconclusive: 24.1%. In the case of `CCCC#Cc1cnc2c(c1)C(=O)N([C@@H](C)CO)C[C@H](C)[C@H](CN(C)C(=O)c1ccc3c(c1)OCO3)O2`, the activation is reported as inactive: -0.667%. With `COC(=O)c1ccc(Cn2cc(C(F)(F)F)ccc2=O)cc1` the activation was inactive: 0.054%. For `CCCCn1nnnc1C(c1ccccc1)N1CCN(c2ccc(C)cc2)CC1` (configuration not stated), the activation was inconclusive: 28.2%. With `Oc1cc(-c2cccnc2)cc2cccnc12` the activation was inconclusive: 20.2%. In the case of `COc1cc(NC(C)CCc2ccccc2)cc(OC)c1OC` (configuration not stated), the activation is reported as inconclusive: 20.4%. For `COc1ccc2nc(SCC(=O)Nc3ccccc3OC)[nH]c2c1`, the activation was inconclusive: 23.2%. With `COCCCn1c(C)cc(C(=O)COC(=O)CCc2nc3ccccc3c(=O)[nH]2)c1C` the activation was inconclusive: 34.9%. For `O=C(Nc1ccc(F)cc1)Nc1ccc2c(c1)OCO2`, the activation was inactive: 0.018%. For `CCOC(=O)c1sc(-c2ccc(F)cc2)cc1NC(=O)Nc1ccccc1OC`, the activation was inconclusive: 54.9%. For `COc1ccc(/C=C2\SC(=O)N(CCNC(=O)CCS(=O)(=O)c3ccc(C)cc3)C2=O)cc1`, the activation was inactive: -0.048%. For `COc1ccc(-[n+]2c(C)cc(/C=C3\Sc4ccccc4N3C)cc2C)cc1`, the activation was active: 179%. In the case of `C[C@H]1CCCCO[C@@H](CN(C)C(=O)Nc2ccc(C(F)(F)F)cc2)[C@@H](C)CN([C@@H](C)CO)C(=O)c2cc(NC(=O)CCC(F)(F)F)ccc2O1`, the activation is reported as inconclusive: 22.2%. For `Cc1cc(C(=O)Nc2cccc3c2O[C@H](CN(C)Cc2ccc(Cl)c(Cl)c2)[C@@H](C)CN([C@H](C)CO)C3=O)n(C)n1`, the activation was inactive: -1.37%. In the case of `Cc1ccc(N2C(=O)C3C4C=CC(CNC(=S)N5CCN(c6ccccc6)CC5)(O4)C3C2=O)cc1` (configuration not stated), the activation is reported as inconclusive: 11.3%. In the case of `CCOC(=O)c1nn(-c2ccc3ccccc3c2)cc1O`, the activation is reported as active: 16.9%. In the case of `[N-]=[N+]=CC(=O)C(O)(c1ccccc1)C(Cl)c1ccccc1` (configuration not stated), the activation is reported as inconclusive: 12.5%. For `O=C(/C=C/c1ccc2ccccc2n1)c1cc(Cl)ccc1O`, the activation was inactive: -0.0785%. In the case of `O=C(N/N=C/c1ccc2ncccc2c1)c1ccco1`, the activation is reported as inactive: -0.008%. With `Cc1nn(-c2ccccc2)c2ncc(C(=O)c3cc(Cl)ccc3O)cc12` the activation was inconclusive: 33.3%. In the case of `CC(=O)c1cccc(-c2ccc3c(c2)C(C)(Cc2ccc(S(C)(=O)=O)cc2)C(=O)N3)c1` (configuration not stated), the activation is reported as inconclusive: 13%. For `COc1ccc2c3c([nH]c2c1)[C@H](CO)N(C(=O)C1CCCC1)CC31CN(Cc2nccs2)C1`, the activation was inconclusive: 24.8%. In the case of `CCC(C(=O)Nc1cc(OC)c(NC(=O)c2ccccc2)cc1OC)c1ccccc1` (configuration not stated), the activation is reported as inconclusive: 11.3%. In the case of `O=c1[nH]c(=O)n([C@H]2C[C@H](O)[C@@H](CO)O2)cc1C(F)(F)F`, the activation is reported as active: 25.3%. For `O=C1Nc2ccccc2/C1=C/c1ccccc1Cl`, the activation was inconclusive: 50.1%. In the case of `COc1ccc(N2CCN(C(CNC(=O)c3ccc4c(c3)OCO4)c3ccco3)CC2)cc1` (configuration not stated), the activation is reported as active: 28.6%. With `Cc1ccc(Nc2nc(N)nc(COC(=O)C3=COCCO3)n2)cc1` the activation was inconclusive: 22.3%. In the case of `COc1ccc(CNC(=O)c2ccc(-c3cnn(C)c3)c3ccoc23)cc1OC`, the activation is reported as inconclusive: 27.9%.
